# From paper PMC9177810, “Allosteric interactions prime androgen receptor dimerization and activation”
# Key:
# [1] = target: AR deltaNTD N759 mutant (mouse) (UniProt P19091); test: fluorescence polarization; details: DHT, text says abrogated, 150 mM NaCl, 40 mM Tris pH 8.0, 1 mM TCEP, 20 uM DHT, 10% glycerol, 0.01% NP40, on ice, FP 100 nM DNA, 0-4 uM protein, recombinant protein, protein details: Smt3 fusion, removed by Ulp1
# [2] = target: AR deltaNTD R761 mutant (mouse) (UniProt P19091); test: fluorescence polarization; details: DHT, text says abrogated, 150 mM NaCl, 40 mM Tris pH 8.0, 1 mM TCEP, 20 uM DHT, 10% glycerol, 0.01% NP40, on ice, FP 100 nM DNA, 0-4 uM protein, recombinant protein, protein details: Smt3 fusion, removed by Ulp1
# [3] = target: AR deltaNTD N759/R761 double mutant (mouse) (UniProt P19091); test: fluorescence polarization; details: DHT, text says abrogated, 150 mM NaCl, 40 mM Tris pH 8.0, 1 mM TCEP, 20 uM DHT, 10% glycerol, 0.01% NP40, on ice, FP 100 nM DNA, 0-4 uM protein, recombinant protein, protein details: Smt3 fusion, removed by Ulp1
# AR DBD (mouse) [4] = target: T1, AR DBD (mouse) (UniProt P19091); test: EMSA; details: no supershifted species; 150 mM NaCl, 40 mM Tris pH 8.0, 1 mM TCEP, 20 uM DHT, 10% glycerol, 0.01% NP40, on ice; EMSA 50 nM DNA, 250 nM protein; recombinant protein; protein details: Smt3 fusion, removed by Ulp1; label: 5' fluorescein (FP), unlabeled (EMSA)
# T1 sequence (looked up, limits assumed): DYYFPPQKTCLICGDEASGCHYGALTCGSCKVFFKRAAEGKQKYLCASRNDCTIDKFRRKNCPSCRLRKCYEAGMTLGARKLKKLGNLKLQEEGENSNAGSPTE
# [5] = target: AR deltaNTD K861 mutant (mouse) (UniProt P19091); test: fluorescence polarization; details: DHT, text says abrogated, but gel shifts of most mutants resemble DBD; 150 mM NaCl, 40 mM Tris pH 8.0, 1 mM TCEP, 20 uM DHT, 10% glycerol, 0.01% NP40, on ice; FP 100 nM DNA, 0-4 uM protein; recombinant protein; protein details: Smt3 fusion, removed by Ulp1; label: 5' fluorescein (FP), unlabeled (EMSA)
# [6] = target: AR deltaNTD KRK 845-847 mutant (mouse) (UniProt P19091); test: fluorescence polarization; details: DHT, text says abrogated, but gel shifts of most mutants resemble DBD; 150 mM NaCl, 40 mM Tris pH 8.0, 1 mM TCEP, 20 uM DHT, 10% glycerol, 0.01% NP40, on ice; FP 100 nM DNA, 0-4 uM protein; recombinant protein; protein details: Smt3 fusion, removed by Ulp1; label: 5' fluorescein (FP), unlabeled (EMSA)
# AR DBD (mouse) [7] = target: T1, AR DBD (mouse); test: fluorescence polarization; details: 150 mM NaCl, 40 mM Tris pH 8.0, 1 mM TCEP, 20 uM DHT, 10% glycerol, 0.01% NP40, on ice; FP 100 nM DNA, 0-4 uM protein; recombinant protein; protein details: Smt3 fusion, removed by Ulp1; label: 5' fluorescein (FP), unlabeled (EMSA)
# [8] = target: AR deltaNTD R854 mutant (mouse) (UniProt P19091); test: fluorescence polarization; details: DHT, text says abrogated, but gel shifts of most mutants resemble DBD; 150 mM NaCl, 40 mM Tris pH 8.0, 1 mM TCEP, 20 uM DHT, 10% glycerol, 0.01% NP40, on ice; FP 100 nM DNA, 0-4 uM protein; recombinant protein; protein details: Smt3 fusion, removed by Ulp1; label: 5' fluorescein (FP), unlabeled (EMSA)
# [9] = but gel shifts of most mutants resemble DBD, label: 5' fluorescein (FP), unlabeled (EMSA)
sequence,measurement,setting,value
AGACCTAGCGTGGCCAGAACATCATTAAGCCCGGTGCGATCCAG (double strand) [ARE-Half-Site/Scr],binding result,[1]; label: 5' fluorescein,binds more weakly
same,binding result,[2]; label: 5' fluorescein,binds more weakly
same,binding result,[3]; label: 5' fluorescein,binds more weakly
TACCTAGCGTGGCCAGAACATCATGTTCTCCGGTGCGATCCAG (double strand) [ARE/Scr (ARE43)],binding result,AR DBD (mouse) [4],binds more weakly
same,binding result,[5],binds more weakly
same,binding result,[1]; [9],binds more weakly
same,binding result,[2]; [9],binds more weakly
same,binding result,[3]; [9],binds more weakly
same,binding result,[6],binds more weakly
same,binding signal (fold weaker than WT AR),AR DBD (mouse) [7],> 5
same,binding result,[8],binds more weakly

# For some assays here: The comparison behind a weaker result is the experiment's own reference, which may not be listed here. For some assays here: Tags and fusion partners may be left off the protein sequences shown. For some assays here: The exact form of at least one protein or probe is not confirmed. For some assays here: At least one verdict was read from the data and is not stated in words by the source. For some assays here: The direction of at least one scale is not stated here.
